From the supplement of paper PMC2577665
± gives the standard deviation of the averaged measurements. Single values of this set are uncertain.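 Each test well overexpressed one poorly characterized human cDNA in ERalpha-negative HeLa cells together with transfected ERalpha and a reporter carrying two estrogen response elements. A gene counted as a repressor hit if it cut the signal to the level of the BRCA1 positive control (about 0.6 of empty vector) or lower.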

tested on: ERE-luciferase reporter with exogenous ERalpha in HeLa cells; assay: relative ERE luciferase activity (Firefly/Renilla) upon cDNA overexpression, relative to empty vector (fold of empty vector); higher = stronger ERalpha transactivation (less repression); conditions: 17beta-estradiol: 10 nM; 12 h

“MKLPARVFFTLGSRLPCGLAPRRFFSYGTKILYQNTEALQSKFFSPLQKAMLPPNSFQGKVAFITGGGTGLGKGMTTLLSSLGAQCVIASRKMDVLKATAEQISSQTGNKVHAIQCDVRDPDMVQNTVSELIKVAGHPNIVINNAAGNFISPTERLSPNAWKTITDIVLNGTAFVTLEIGKQLIKAQKGAAFLSITTIYAETGSGFVVPSASAKAGVEAMSKSLAAEWGKYGMRFNVIQPGPIKTKGAFSRLDPTGTFEKEMIGRIPCGRLGTVEELANLAAFLCSDYASWINGAVIKFDGGEEVLISGEFNDLRKVTKEQWDTIEELIRKTKGS [DECR1]” and “MKPLVLLVALLLWPSSVPAYPSITVTPDEEQNLNHYIQVLENLVRSVPSGEPGREKKSNSPKHVYSIASKGSKFKELVTHGDASTENDVLTNPISEETTTFPTGGFTPEIGKKKHTESTPFWSIKPNNVSIVLHAEEPYIENEEPEPEPEPAAKQTEAPRMLPVVTESSTSPYVTSYKSPVTTLDKSTGIGISTESEDVPQLSGETAIEKPEEFGKHPESWNNDDILKKILDINSQVQQALLSDTSNPAYREDIEASKDHLKRSLALAAAAEHKLKTMYKSQLLPVGRTSNKIDDIETVINMLCNSRSKLYEYLDIKCVPPEMREKAATVFNTLKNMCRSRRVTALLKVY [SPESP1]” are within error of each other in “relative ERE luciferase activity” value: 1.18 ± 0.028 for the first, 1.16 for the second.

“MKPVKHLLTTSNKSANVPALTTKKGLHNLPLSPELKEKHNAKLIHDKIEPMVLRSPPTGESILRYALPIPSSKTKNLLPEDEMIGKIIKHLKMVVSTLEETYGHCDQNGEEPFVKHEHEELSLSVGDDMNSFLTYCSQFAAQLEEALKEEQNILESLFKWFQWQVNQMEEISKDQTLLQAEPPKPDKTVILNIAEIVRLVQRFEELKNRLKQRSKSSVKVMLSKTMDKENRPEAVKSCEALAQKIEEFLEAHSTDEFKDVSATEPQTAHSMTNRFNAMLKVFENQANMLERAVNDQVLLDAEYKQMQCDFQLLSEEKLVLENELQKLKDKEKTKPTNNRTKKAVKTVKKKDKGKSEDSEKKMSPEKEFKIKEDLDQVQKVARLEIENKVLQEQLKQALQEAEKAKHQLNYFLNQEKLLKSEGKTETTMQVGNSQTKVKGEDSKNIPLEKETRKSLVSDSGGQRTSDKIQEYPQITAQSGRLIEKSSEKKRSSPAISDLSQILKSQDESAFLESSNEVSVAENQSYKSPSETHDKSLTTVSSSKEVQDSLSVGTLAQKNETVISPFILPPVLTESKKADVSEEQLQKMTEEQTYQAAEKSQADSEVPDENLMVENKDSVTKVQIEQMKQRTSSMERHEETLTTPQLPEDMVLVSRIQSETKNLKATRNESFHSHNDVPEENLMLEQDTKSKTEVEVKKQKSFQDNQLSTHNEVPNERLVVEHQESLSKTKLQIKKQETSTEQPLTTPDKEPNENLILRHQDSMSKSEMQVKEQRTLKGQRIITHDEEPGKNLVLEHQDSVSKLEMQIEKTKKLPREKRHSTHDEESGENPMLKHQDSVSKIQVQLEIQETSEGEGRSIPDKNSMFVHQDSVSKLQMQEKKKITPGRERRNTRIVVPNENVISVHQDSKSKLQMQEKKQINSGVERHKTFPLEIKKKDISLEHLLPEEKVLLSRSESQTKKLQAKVTSRKIKNEAASELPDTAENLPAMYPSISDLIIQFDLNKVVETDIESLRGALGRRLLNDEFKTQSKSFPGPDIEQLTDAFGRDILKDEFKTRSKSLPETDERLHSTTERGTINDAIKTQLKRKSYPETVLKHLKGVNGKDIIKHLINIQSKSHGETDKEHLADDTGRGIIKGSINAQLKGHQKTDKNFFAYATGRGLMKESTTTQLKSHPETDKEFLADAIGRGIIIGPITTQLKSHRETDKELLKDAIGRDIIKGPISAQLKSHQETDVEPLTNAIGSSKTIGEIKTQLRTHYDVNLFKNKDMSVQRQEGIFTRSITPSKFPTKVINLSPFENKEETYEYSSPYVTAPSKAIYRTYRAGPSFSKDIHLPLLNQLPSGHSKVVTLSQKTIEFTLPTVTNTVGKPTYKVLHAAARKSVPHPYF [CCDC7]” and “MKSSDIDQDLFTDSYCKVCSAQLISESQRVAHYESRKHASKVRLYYMLHPRDGGCPAKRLRSENGSDADMVDKNKCCTLCNMSFTSAVVADSHYQGKIHAKRLKLLLGEKTPLKTTATPLSPLKPPRMDTAPVVASPYQRRDSDRYCGLCAAWFNNPLMAQQHYDGKKHKKNAARVALLEQLGTTLDMGELRGLRRNYRCTICSVSLNSIEQYHAHLKGSKHQTNLKNK [ZMAT4]” are within error of each other in “relative ERE luciferase activity” value: 0.952 ± 0.069 for the first, 1.02 ± 0.12 for the second.

Going from “MKTVKEKKECQRLRKSAKTRRVTQRKPSSGPVCWLCLREPGDPEKLGEFLQKDNISVHYFCLILSSKLPQRGQSNRGFHGFLPEDIKKEAARASRKICFVCKKKGAAINCQKDQCLRNFHLPCGQERGCLSQFFGEYKSFCDKHRPTQNIQHGHVGEESCILCCEDLSQQSVENIQSPCCSQAIYHRKCIQKYAHTSAKHFFKCPQCNNRKEFPQEMLRMGIHIPDRDAAWELEPGAFSDLYQRYQHCDAPICLYEQGRDSFEDEGRWCLILCATCGSHGTHRDCSSLRSNSKKWECEECSPAAATDYIPENSGDIPCCSSTFHPEEHFCRDNTLEENPGLSWTDWPEPSLLEKPESSRGRRSYSWRSKGVRITNSCKKSK [PHF7]” to “MLFIFPLSLPWRPSCWKESCSTGQRQAGRSREDSVTPPPSSPWPTPPAGAMSTKQEARRDEGEARTRGQEAQLRDRAHLSQQRRLKQATQFLHKDSADLLPLDSLKRLGTSKDLQPRSVIQRRLVEGNPNWLQGEPPRMQDLIHGQESRRKTSRTEIPALLVNCKCQDQLLRVAVDTGTQYNRISAGCLSRLGLEKRVLKASAGDLAPGPPTQVEQLELQLGQETVVCSAQVVDAESPEFCLGLQTLLSLKCCIDLEHGVLRLKAPFSELPFLPLYQEPGQ [NRIP2]”, the “relative ERE luciferase activity” value rises from 0.514 to 1.05.

First: MLFWHTQPEHYNQHNSGSYLRDVLALPIFKQEEPQLSPENEARLPPLQYVLCAATSPAVKLHEETLTYLNQGQSYEIRLLENRKLGDFQDLNTKYVKSIIRVVFHDRRLQYTEHQQLEGWRWSRPGDRILDIDIPLSVGILDPRASPTQLNAVEFLWDPAKRASAFIQVHCISTEFTPRKHGGEKGVPFRVQIDTFKQNENGEYTEHLHSASCQIKVFKPKGADRKQKTDREKMEKRTAQEKEKYQPSYETTILTECSPWPDVAYQVNSAPSPSYNGSPNSFGLGEGNASPTHPVEALPVGSDHLLPSASIQDAQQWLHRNRFSQFCRLFASFSGADLLKMSRDDLVQICGPADGIRLFNAIKGRNVRPKMTIYVCQELEQNRVPLQQKRDGSGDSNLSVYHAIFLEELTTLELIEKIANLYSISPQHIHRVYRQGPTGIHVVVSNEMVQNFQDESCFVLSTIKAESNDGYHIILKCGL [TFCP2L1]
Second: MLITVYCVRRDLSEVTFSLQVSPDFELRNFKVLCEAESRVPVEEIQIIHMERLLIEDHCSLGSYGLKDGDIVVLLQKDNVGPRAPGRAPNQPRVDFSGIAVPGTSSSRPQHPGQQQQRTPAAQRSQGLASGEKVAGLQGLGSPALIRSMLLSNPHDLSLLKERNPPLAEALLSGSLETFSQVLMEQQREKALREQERLRLYTADPLDREAQAKIEEEIRQQNIEENMNIAIEEAPESFGQVTMLYINCKVNGHPLKAFVDSGAQMTIMSQACAERCNIMRLVDRRWAGVAKGVGTQRIIGRVHLAQIQIEGDFLQCSFSILEDQPMDMLLGLDMLRRHQCSIDLKKNVLVIGTTGTQTYFLPEGELPLCSRMVSGQDESSDKEITHSVMDSGRKEH [DDI1]
The “relative ERE luciferase activity” value of the first is lower: 0.874 for the first, 1.11 for the second.

Compared with “MLPGVGVFGTSLTARVIIPLLKDEGFAVKALWGRTQEEAEELAKEMSVPFYTSRIDEVLLHQDVDLVCINLPPPLTRQIAVKTLGIGKNVICDRTATPLDAFRMTSAAHYYPKLMSIMGNVLRFLPAFVRMKQLIEEGYVGEPLVCEVQVHGGSLLGKKYNWSCDDLMGGGGLHSVGTYIIDLLTFLTGQKAVKVHGLLKTFVKQTDHIKGIRQITSDDFCTFQMVLEGGVCCTVTLNFNVPGEFKQDVTVVGSAGRLLAVGTDLYGQRNSAPEQELLVQDATPVSNSLLPEKAFSDIPSPYLRGTIKMMQAVRQAFQDQDDRRTWDGRPLTMAATFDDCLYALCVVDTIKRSSQTGEWQNIAIMTEEPELSPAYLISEAMRRSRMSLYC [GFOD1]”, “MLSARDRRDRHPEEGVVAELQGFAVDKAFLTSHKGILLETELALTLIIFICFTASISAYMAAALLEFFITLAFLFLYATQYYQRFDRINWPCLLQGHGQSGGPHPLDLLSHSAKVQPQPWPGLTPPGWHTPAAVPWVPAPAPGFWSWLLWFICFHSLGSSDFLRCVSAIIIFLVVSFAAVTSRDGAAIAAFVFGIILVSIFAYDAFKIYRTEMAPGASQGDQQ [CMTM5]” is higher in “relative ERE luciferase activity” value: 0.978 for the first, 1.83 for the second.

Going from “MLSLDFLDDVRRMNKRQLYYQVLNFGMIVSSALMIWKGLMVITGSESPIVVVLSGSMEPAFHRGDLLFLTNRVEDPIRVGEIVVFRIEGREIPIVHRVLKIHEKQNGHIKFLTKGDNNAVDDRGLYKQGQHWLEKKDVVGRARGFVPYIGIVTILMNDYPKFKYAVLFLLGLFVLVHRE [SEC11A]” to “MLSLKLPRLFSIDQIPQVFHEQGILFGYRHPQSSATACILSLFQMTNETLNIWTHLLPFWFFAWRFVTALYMTDIKNDSYSWPMLVYMCTSCVYPLVSSCAHTFSSMSKNARHICYFLDYGAVNLFSLGSAIAYSAYTFPDALMCTTFHDYYVALAVLNTILSTGLSCYSRFLEIQKPRLCKVIRVLAFAYPYTWDSLPIFYRLFLFPGESAQNEATSYHQKHMIMTLLASFLYSAHLPERLAPGRFDYIGHSHQLFHVCVILATHMQMEAILLDKTLRKEWLLATSKPFSFSQIAGAILLCIIFSLSNIIYFSAALYRIPKPELHKKET [PAQR5]”, the “relative ERE luciferase activity” value falls from 1.12 to 1.05.

“MLSRLMSGSSRSLEREYSCTVRLLDDSEYTCTIQRDAKGQYLFDLLCHHLNLLEKDYFGIRFVDPDKQRHWLEFTKSVVKQLRSQPPFTMCFRVKFYPADPAALKEEITRYLVFLQIKRDLYHGRLLCKTSDAALLAAYILQAEIGDYDSGKHPEGYSSKFQFFPKHSEKLERKIAEIHKTELSGQTPATSELNFLRKAQTLETYGVDPHPCKDVSGNAAFLAFTPFGFVVLQGNKRVHFIKWNEVTKLKFEGKTFYLYVSQKEEKKIILTYFAPTPEACKHLWKCGIENQAFYKLEKSSQVRTVSSSNLFFKGSRFRYSGRVAKEVMESSAKIKREPPEIHRAGMVPSRSCPSITHGPRLSSVPRTRRRAVHISIMEGLESLRDSAHSTPVRSTSHGDTFLPHVRSSRTDSNERVAVIADEAYSPADSVLPTPVAEHSLELMLLSRQINGATCSIEEEKESEASTPTATEVEALGGELRALCQGHSGPEEEQVNKFVLSVLRLLLVTMGLLFVLLLLLIILTESDLDIAFFRDIRQTPEFEQFHYQYFCPLRRWFACKIRSVVSLLIDT [FRMD5]” and “MLSSFNEWFWQDRFWLPPNVTWTELEDRDGRVYPHPQDLLAALPLALVLLAMRLAFERFIGLPLSRWLGVRDQTRRQVKPNATLEKHFLTEGHRPKEPQLSLLAAQCGLTLQQTQRWFRRRRNQDRPQLTKKFCEASWRFLFYLSSFVGGLSVLYHESWLWAPVMCWDRYPNQTLKPSLYWWYLLELGFYLSLLIRLPFDVKRKDFKEQVIHHFVAVILMTFSYSANLLRIGSLVLLLHDSSDYLLEACKMVNYMQYQQVCDALFLIFSFVFFYTRLVLFPTQILYTTYYESISNRGPFFGYYFFNGLLMLLQLLHVFWSCLILRMLYSFMKKGQMEKDIRSDVEESDSSEEAAAAQEPLQLKNGAAGGPRPAPTDGPRSRVAGRLTNRHTTAT [LASS4]” are the same in “relative ERE luciferase activity” value: 1.13 for the first, 1.13 for the second.

“MMATPNQTACNAESPVALEEAKTSGAPGSPQTPPERHDSGGSLPLTPRMESHSEDEDLAGAVGGLGWNSRSPRTQSPGGCSAEAVLARKKHRRRPSKRKRHWRPYLELSWAEKQQRDERQSQRASRVREEMFAKGQPVAPYNTTQFLMNDRDPEEPNLDVPHGISHPGSSGESEAGDSDGRGRAHGEFQRKDFSETYERFHTESLQGRSKQELVRDYLELEKRLSQAEEETRRLQQLQACTGQQSCRQVEELAAEVQRLRTENQRLRQENQMWNREGCRCDEEPGT [HEXIM2]” was tested, and the “relative ERE luciferase activity” value was 1 ± 0.09.
